The list shows a part of the results.
How the values were obtained:
Assay in all cases: log2 fold change, soluble protein after heating vs DMSO (PISA); higher = thermal stabilisation; K562 cells, 10 uM, 30 min; active = over 0.2 and 3.5 SD of the protein, either way, in both replicates (recomputed)
bafetinib = compound: Cc1ccc(NC(=O)c2ccc(CN3CC[C@H](N(C)C)C3)c(C(F)(F)F)c2)cc1Nc1nccc(-c2cncnc2)n1 [bafetinib]
Method in brief: (§1)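 Soluble protein was defined as the supernatant after 21,000xg for 90 min. It came from K562 cells at 2×10^6 cells/mL given 10 μM compound for 30 min, heated in aliquots for 3 min across 48°C-58°C, pooled, and extracted in PBS with 0.5% NP-40 at 4°C, and was quantified by TMTpro 16plex LC-MS/MS with equalised channel sums. Thermal stability against control samples, from duplicates, is reported as log2 fold change.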

Chains of the proteins cited; added tags and fusions are not shown. Lines headed by an entry give the natural chain unless they say otherwise; changes in a name come on top.
UniProt Q8NBJ7: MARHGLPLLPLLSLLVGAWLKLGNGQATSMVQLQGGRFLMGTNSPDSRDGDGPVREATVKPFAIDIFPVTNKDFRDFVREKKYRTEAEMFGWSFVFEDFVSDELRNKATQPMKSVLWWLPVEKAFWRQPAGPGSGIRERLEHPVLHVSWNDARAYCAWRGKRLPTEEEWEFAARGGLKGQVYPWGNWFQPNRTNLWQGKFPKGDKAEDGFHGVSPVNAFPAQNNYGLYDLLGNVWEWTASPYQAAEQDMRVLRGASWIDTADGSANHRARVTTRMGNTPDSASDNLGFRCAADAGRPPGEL
UniProt Q9UMX1: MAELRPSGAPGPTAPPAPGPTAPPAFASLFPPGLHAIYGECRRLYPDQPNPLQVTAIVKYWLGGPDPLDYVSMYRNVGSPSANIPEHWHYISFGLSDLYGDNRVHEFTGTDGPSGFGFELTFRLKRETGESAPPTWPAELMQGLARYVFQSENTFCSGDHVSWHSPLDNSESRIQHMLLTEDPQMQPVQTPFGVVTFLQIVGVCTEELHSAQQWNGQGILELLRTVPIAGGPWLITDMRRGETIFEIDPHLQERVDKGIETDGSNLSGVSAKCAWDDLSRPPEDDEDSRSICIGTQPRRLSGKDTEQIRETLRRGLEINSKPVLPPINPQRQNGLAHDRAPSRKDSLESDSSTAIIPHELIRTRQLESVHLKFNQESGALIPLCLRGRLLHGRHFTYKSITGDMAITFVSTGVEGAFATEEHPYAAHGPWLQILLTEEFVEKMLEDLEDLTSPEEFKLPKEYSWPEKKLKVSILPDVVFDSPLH
UniProt Q5T5C0: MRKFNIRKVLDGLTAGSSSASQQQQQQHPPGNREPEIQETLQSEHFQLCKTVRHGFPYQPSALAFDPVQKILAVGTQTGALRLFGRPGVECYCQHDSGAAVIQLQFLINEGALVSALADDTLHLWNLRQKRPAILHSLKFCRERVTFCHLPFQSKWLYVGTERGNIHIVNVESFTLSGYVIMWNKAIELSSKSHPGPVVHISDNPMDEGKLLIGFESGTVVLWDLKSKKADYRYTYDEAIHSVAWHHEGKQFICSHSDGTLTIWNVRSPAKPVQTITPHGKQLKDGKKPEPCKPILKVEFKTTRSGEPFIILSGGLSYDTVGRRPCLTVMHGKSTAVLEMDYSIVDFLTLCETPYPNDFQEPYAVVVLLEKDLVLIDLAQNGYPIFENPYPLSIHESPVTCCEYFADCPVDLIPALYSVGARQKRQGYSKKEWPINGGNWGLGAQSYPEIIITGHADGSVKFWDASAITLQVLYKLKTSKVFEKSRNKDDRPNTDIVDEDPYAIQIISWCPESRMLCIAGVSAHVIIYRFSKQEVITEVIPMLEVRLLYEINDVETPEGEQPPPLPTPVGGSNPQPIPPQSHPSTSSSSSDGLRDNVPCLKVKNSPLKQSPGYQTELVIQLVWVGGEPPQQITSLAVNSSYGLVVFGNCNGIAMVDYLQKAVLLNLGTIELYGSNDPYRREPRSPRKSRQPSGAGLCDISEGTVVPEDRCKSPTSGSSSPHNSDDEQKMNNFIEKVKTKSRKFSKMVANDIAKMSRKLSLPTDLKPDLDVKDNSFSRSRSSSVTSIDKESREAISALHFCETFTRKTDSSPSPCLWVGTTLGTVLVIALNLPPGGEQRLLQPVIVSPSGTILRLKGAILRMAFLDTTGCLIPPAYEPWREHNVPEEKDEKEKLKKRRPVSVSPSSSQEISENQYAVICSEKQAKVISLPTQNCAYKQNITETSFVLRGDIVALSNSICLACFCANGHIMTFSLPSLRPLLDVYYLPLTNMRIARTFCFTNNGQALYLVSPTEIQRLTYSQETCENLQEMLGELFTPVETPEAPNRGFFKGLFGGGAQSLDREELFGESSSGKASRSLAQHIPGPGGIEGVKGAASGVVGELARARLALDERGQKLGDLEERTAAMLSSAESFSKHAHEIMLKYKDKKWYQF
UniProt Q6ICL3: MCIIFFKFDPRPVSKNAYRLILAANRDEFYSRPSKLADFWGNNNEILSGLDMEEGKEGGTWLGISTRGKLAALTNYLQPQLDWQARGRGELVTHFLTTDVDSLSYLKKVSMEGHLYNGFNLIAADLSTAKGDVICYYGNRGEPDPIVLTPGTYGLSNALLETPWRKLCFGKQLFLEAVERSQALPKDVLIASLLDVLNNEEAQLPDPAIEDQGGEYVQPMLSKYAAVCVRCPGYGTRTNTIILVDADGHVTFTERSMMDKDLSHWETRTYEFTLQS
UniProt Q13190: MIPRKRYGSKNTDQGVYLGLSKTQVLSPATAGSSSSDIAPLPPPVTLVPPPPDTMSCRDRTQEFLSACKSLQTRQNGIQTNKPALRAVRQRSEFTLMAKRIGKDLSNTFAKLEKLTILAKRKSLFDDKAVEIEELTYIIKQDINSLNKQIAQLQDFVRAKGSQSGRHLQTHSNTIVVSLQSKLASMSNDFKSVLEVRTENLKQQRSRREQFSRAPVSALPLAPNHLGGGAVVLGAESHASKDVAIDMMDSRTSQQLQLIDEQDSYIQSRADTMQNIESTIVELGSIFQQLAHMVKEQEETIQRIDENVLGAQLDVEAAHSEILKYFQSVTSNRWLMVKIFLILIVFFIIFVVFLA
UniProt Q15633: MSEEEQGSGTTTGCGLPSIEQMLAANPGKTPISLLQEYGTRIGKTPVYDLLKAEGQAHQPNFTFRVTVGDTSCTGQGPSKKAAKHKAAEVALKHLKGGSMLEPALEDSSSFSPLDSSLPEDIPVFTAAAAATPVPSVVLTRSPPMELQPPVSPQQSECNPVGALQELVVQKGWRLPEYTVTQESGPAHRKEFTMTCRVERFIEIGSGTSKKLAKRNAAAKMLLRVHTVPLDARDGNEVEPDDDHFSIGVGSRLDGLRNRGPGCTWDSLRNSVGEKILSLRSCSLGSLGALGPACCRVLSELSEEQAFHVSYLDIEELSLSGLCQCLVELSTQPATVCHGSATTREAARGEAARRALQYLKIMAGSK
UniProt P50225: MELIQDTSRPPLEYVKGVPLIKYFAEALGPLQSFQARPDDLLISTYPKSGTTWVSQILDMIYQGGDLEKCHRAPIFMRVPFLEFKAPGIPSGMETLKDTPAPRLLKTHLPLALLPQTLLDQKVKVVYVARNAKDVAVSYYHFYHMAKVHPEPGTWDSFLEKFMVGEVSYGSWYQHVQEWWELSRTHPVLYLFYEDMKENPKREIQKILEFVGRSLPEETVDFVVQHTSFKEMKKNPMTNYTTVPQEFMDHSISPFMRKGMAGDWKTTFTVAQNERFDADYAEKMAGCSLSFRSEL
UniProt O43760: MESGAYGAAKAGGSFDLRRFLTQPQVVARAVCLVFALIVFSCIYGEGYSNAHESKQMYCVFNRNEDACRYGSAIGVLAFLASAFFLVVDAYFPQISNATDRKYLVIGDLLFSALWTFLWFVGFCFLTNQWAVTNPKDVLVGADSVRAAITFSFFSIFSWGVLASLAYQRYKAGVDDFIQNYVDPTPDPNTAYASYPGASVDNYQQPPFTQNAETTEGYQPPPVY
UniProt Q8IWZ8: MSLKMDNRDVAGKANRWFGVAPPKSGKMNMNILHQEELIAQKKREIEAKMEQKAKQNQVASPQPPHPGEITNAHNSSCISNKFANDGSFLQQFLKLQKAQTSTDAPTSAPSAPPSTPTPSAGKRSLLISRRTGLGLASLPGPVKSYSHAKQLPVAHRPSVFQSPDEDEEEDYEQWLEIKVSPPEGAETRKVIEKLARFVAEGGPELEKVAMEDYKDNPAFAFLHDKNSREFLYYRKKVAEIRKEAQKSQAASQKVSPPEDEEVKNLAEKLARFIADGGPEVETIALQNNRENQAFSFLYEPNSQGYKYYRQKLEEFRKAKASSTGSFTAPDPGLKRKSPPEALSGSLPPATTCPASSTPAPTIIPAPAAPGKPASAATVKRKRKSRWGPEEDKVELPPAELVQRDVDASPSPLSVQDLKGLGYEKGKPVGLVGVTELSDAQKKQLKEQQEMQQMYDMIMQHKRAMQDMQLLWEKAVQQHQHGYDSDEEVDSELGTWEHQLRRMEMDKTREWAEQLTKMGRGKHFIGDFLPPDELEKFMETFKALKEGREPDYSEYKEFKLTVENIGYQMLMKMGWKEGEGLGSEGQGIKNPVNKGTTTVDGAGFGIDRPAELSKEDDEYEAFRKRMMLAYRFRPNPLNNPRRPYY
UniProt Q7L7X3: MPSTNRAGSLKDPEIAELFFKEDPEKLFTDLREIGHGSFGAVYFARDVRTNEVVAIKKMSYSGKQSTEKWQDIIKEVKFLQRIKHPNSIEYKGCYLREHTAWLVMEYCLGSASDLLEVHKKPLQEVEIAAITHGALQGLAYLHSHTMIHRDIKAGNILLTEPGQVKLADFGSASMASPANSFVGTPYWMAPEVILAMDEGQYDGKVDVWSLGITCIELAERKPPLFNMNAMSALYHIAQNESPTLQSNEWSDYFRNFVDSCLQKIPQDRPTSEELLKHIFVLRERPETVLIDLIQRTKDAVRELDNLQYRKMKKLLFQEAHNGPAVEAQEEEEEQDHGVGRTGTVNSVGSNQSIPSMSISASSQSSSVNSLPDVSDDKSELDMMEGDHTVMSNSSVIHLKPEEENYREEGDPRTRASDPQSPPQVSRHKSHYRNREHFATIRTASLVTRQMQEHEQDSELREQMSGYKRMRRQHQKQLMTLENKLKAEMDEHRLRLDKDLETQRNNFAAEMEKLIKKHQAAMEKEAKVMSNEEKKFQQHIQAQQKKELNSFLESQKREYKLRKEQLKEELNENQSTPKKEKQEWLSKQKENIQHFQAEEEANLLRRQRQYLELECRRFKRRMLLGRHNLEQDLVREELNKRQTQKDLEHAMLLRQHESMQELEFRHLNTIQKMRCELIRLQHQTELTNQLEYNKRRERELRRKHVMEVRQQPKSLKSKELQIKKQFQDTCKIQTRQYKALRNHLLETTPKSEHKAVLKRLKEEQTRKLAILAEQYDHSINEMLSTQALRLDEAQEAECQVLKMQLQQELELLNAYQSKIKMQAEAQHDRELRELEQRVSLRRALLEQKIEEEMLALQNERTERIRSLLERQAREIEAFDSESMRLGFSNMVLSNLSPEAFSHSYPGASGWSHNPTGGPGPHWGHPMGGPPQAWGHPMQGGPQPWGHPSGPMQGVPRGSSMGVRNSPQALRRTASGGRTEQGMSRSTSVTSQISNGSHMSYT
UniProt A2RTX5: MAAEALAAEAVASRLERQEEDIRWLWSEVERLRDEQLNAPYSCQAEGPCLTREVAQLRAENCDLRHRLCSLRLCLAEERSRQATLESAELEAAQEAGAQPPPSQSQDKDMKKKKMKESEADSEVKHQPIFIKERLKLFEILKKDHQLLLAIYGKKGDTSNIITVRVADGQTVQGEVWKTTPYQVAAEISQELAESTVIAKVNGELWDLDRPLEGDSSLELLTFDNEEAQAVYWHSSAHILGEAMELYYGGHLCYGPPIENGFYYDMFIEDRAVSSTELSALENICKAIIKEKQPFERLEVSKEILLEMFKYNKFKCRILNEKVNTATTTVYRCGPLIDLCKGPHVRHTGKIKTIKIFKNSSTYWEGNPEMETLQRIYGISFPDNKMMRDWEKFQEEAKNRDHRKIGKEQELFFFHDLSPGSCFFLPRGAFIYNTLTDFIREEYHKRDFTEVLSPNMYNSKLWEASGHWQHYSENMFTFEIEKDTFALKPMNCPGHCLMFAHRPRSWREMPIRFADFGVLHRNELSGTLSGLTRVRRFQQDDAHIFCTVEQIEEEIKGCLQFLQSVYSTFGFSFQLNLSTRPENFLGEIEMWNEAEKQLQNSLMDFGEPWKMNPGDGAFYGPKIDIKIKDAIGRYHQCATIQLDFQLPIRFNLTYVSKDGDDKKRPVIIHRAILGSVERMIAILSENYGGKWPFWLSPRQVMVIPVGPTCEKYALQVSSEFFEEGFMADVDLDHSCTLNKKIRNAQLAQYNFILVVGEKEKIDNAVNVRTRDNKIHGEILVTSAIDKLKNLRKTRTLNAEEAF
UniProt Q13043: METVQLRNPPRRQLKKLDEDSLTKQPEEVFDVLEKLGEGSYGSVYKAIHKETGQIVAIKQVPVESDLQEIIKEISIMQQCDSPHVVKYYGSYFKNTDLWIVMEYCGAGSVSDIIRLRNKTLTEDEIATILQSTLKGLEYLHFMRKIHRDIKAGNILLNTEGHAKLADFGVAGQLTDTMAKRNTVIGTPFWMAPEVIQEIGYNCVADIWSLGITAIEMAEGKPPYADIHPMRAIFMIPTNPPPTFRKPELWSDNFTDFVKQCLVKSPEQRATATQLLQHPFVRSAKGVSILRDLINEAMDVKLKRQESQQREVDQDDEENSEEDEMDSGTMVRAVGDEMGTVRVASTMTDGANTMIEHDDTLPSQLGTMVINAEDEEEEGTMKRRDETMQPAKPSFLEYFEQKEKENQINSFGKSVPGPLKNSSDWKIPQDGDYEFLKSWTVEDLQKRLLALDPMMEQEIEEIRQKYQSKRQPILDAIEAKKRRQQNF
UniProt P63165, whole entry, looked up: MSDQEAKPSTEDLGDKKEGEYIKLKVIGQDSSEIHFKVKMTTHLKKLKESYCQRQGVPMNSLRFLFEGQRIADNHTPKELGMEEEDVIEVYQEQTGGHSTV

[1] = compound: Cc1cccc(CC(=O)N2CCc3c2ccc(-c2cn(C)c4ncnc(N)c24)c3F)n1
Method in brief: as §1

nilotinib = compound: Cc1cn(-c2cc(NC(=O)c3ccc(C)c(Nc4nccc(-c5cccnc5)n4)c3)cc(C(F)(F)F)c2)cn1 [nilotinib]
Method in brief: as §1

[2] = compound: Cc1nc(Nc2n[nH]c3c2CN(C(=O)N[C@H](CN(C)C)c2ccccc2)C3(C)C)c2sccc2n1
Method in brief: as §1

dasatinib = compound: Cc1nc(Nc2ncc(C(=O)Nc3c(C)cccc3Cl)s2)cc(N2CCN(CCO)CC2)n1 [dasatinib]
Method in brief: as §1

[3] = compound: Cc1ncc(-c2ccnc(Nc3ccc(S(C)(=O)=O)cc3)n2)n1C(C)C
Method in brief: as §1

[4] = compound: Cn1cc(-c2ccc3c(c2)CCN3C(=O)Cc2cccc(C(F)(F)F)c2)c2c(N)ncnc21
Method in brief: as §1

[5] = compound: Cn1cc(-c2ccc3nnc(C(F)(F)c4ccc5ncccc5c4)n3n2)cn1
Method in brief: as §1

tipifarnib = compound: Cn1cncc1[C@@](N)(c1ccc(Cl)cc1)c1ccc2c(c1)c(-c1cccc(Cl)c1)cc(=O)n2C [tipifarnib]
Method in brief: as §1

mubritinib = compound: FC(F)(F)c1ccc(/C=C/c2nc(COc3ccc(CCCCn4ccnn4)cc3)co2)cc1 [mubritinib]
Method in brief: as §1

Measured: log2 fold change

SUMF2 (UniProt Q8NBJ7)
inactive: bafetinib -0.074 | [1] 0.038 | nilotinib -0.033 | [2] -0.019 | dasatinib -0.001 | [3] 0 | [4] -0.014 | [5] 0.03 | tipifarnib 0.034 | mubritinib -0.019

STOM (UniProt P27105)
inactive: bafetinib -0.01 | [1] 0.043 | nilotinib 0.039 | [2] -0.007 | dasatinib 0.039 | [3] -0.03 | [4] -0.043 | [5] 0.055 | tipifarnib 0.031 | mubritinib -0.008

SUPT5H (UniProt O00267)
inactive: bafetinib -0.044 | [1] 0.033 | nilotinib -0.055 | [2] -0.042 | dasatinib -0.082 | [3] 0.01 | [4] 0.024 | [5] 0.036 | tipifarnib -0.037 | mubritinib 0.031

TAX1BP1 (UniProt Q86VP1)
inactive: bafetinib 0.011 | [1] -0.095 | nilotinib -0.086 | [2] 0.011 | dasatinib -0.024 | [3] 0.047 | [4] -0.068 | [5] 0.027 | tipifarnib 0.092 | mubritinib 0.045

SUFU (UniProt Q9UMX1)
inactive: bafetinib 0.029

STXBP5 (UniProt Q5T5C0)
inactive: bafetinib -0.032 | [1] 0.017 | nilotinib 0.003 | [2] -0.025 | dasatinib -0.06 | [3] -0.003 | [4] 0.021 | [5] -0.026 | tipifarnib -0.049 | mubritinib -0.021

TARS1 (UniProt P26639)
inactive: bafetinib -0.024 | [1] 0.097 | nilotinib -0.006 | [2] -0.028 | dasatinib -0.065 | [3] -0.038 | [4] 0.062 | [5] 0.024 | tipifarnib -0.095 | mubritinib 0.078

SYNRG (UniProt Q9UMZ2)
inactive: bafetinib 0.002 | [1] 0.005 | nilotinib -0.053 | [2] -0.036 | dasatinib -0.017 | [3] -0.005 | [4] -0.018 | [5] -0.01 | tipifarnib -0.008 | mubritinib -0.033

TANGO2 isoform 4 (UniProt Q6ICL3)
inactive: bafetinib -0.124 | [1] 0.016 | nilotinib -0.026 | [2] -0.004 | dasatinib -0.025 | [3] -0.052 | [4] 0.074 | [5] 0.023 | tipifarnib 0.009 | mubritinib 0.07

TAF2 (UniProt Q6P1X5)
inactive: bafetinib 0.133 | [1] -0.247 | nilotinib -0.127 | [2] 0.001 | dasatinib 0.002 | [3] -0.024 | [4] -0.334 | [5] -0.061 | tipifarnib 0.051 | mubritinib -0.157

SURF6 (UniProt O75683)
inactive: bafetinib 0.081 | [1] -0.033 | nilotinib 0.126 | [2] 0.03 | dasatinib 0.265 | [3] 0.033 | [4] -0.238 | [5] -0.188 | tipifarnib 0.145 | mubritinib -0.072

TAL1 (UniProt P17542)
inactive: bafetinib -0.037 | [1] -0.062 | nilotinib -0.024 | [2] 0.023 | dasatinib -0.042 | [3] -0.053 | [4] 0.019 | [5] 0.01 | tipifarnib 0.018 | mubritinib -0.005

STX5 (UniProt Q13190)
inactive: bafetinib 0.049 | [1] -0.026 | nilotinib -0.26 | [2] -0.305 | dasatinib -0.142 | [3] 0.056 | [4] 0.022 | [5] 0.035 | tipifarnib -0.09 | mubritinib 0.07

SUPT16H (UniProt Q9Y5B9)
inactive: bafetinib 0.006 | [1] 0.049 | nilotinib 0.011 | [2] -0.088 | dasatinib -0.269 | [3] -0.103 | [4] 0.073 | [5] 0.108 | tipifarnib -0.088 | mubritinib 0.047

TARBP2 (UniProt Q15633)
inactive: bafetinib 0.014 | [1] -0.024 | nilotinib -0.044 | [2] -0.04 | dasatinib 0.029 | [3] -0.046 | [4] -0.199 | [5] -0.064 | tipifarnib 0.011 | mubritinib 0.106

TACC1 isoform 2 (UniProt O75410)
inactive: bafetinib -0.069 | [1] -0.02 | nilotinib 0.006 | [2] 0.04 | dasatinib -0.028 | [3] -0.052 | [4] 0.02 | [5] 0.017 | tipifarnib 0.028 | mubritinib 0.031

STT3B (UniProt Q8TCJ2)
inactive: bafetinib -0.02 | [1] 0 | nilotinib 0.022 | [2] 0.021 | dasatinib 0.072 | [3] -0.054 | [4] -0.106 | [5] 0.032 | tipifarnib 0.11 | mubritinib -0.026

SUPT4H1 (UniProt P63272)
inactive: bafetinib -0.017 | [1] 0.14 | nilotinib 0.018 | [2] -0.035 | dasatinib -0.084 | [3] 0.097 | [4] -0.023 | [5] 0.006 | tipifarnib -0.067 | mubritinib 0.006

SULT1A1 (UniProt P50225)
active: [4] 0.333 | [5] 0.353
inactive: bafetinib -0.067 | [1] 0.222 | nilotinib -0.072 | [2] -0.065 | dasatinib -0.172 | [3] -0.002 | tipifarnib -0.097 | mubritinib -0.069

STX7 (UniProt O15400)
inactive: bafetinib -0.06 | [1] -0.135 | nilotinib 0.009 | [2] 0.013 | dasatinib 0.03 | [3] -0.017 | [4] -0.007 | [5] 0.029 | tipifarnib 0.025 | mubritinib 0.007

TATDN3 isoform 3 (UniProt Q17R31)
inactive: bafetinib -0.051 | [1] 0.016 | nilotinib -0.01 | [2] 0.009 | dasatinib -0.022 | [3] 0.035 | [4] 0.049 | [5] -0.021 | tipifarnib 0.083 | mubritinib 0.039

SYNGR2 (UniProt O43760)
inactive: bafetinib -0.022 | [1] -0.033 | nilotinib 0.051 | [2] 0.002 | dasatinib -0.016 | [3] -0.026 | [4] -0.018 | [5] -0.034 | tipifarnib 0.027 | mubritinib 0.054

SUGP1 (UniProt Q8IWZ8)
inactive: bafetinib -0.033 | [1] 0.012 | nilotinib -0.019 | [2] -0.058 | dasatinib -0.139 | [3] -0.043 | [4] 0.08 | [5] -0.012 | tipifarnib -0.007 | mubritinib 0.063

Reprinted at random: 2 entries already listed, in no set order.
SYNRG (UniProt Q9UMZ2)
inactive: bafetinib 0.002 | [1] 0.005 | nilotinib -0.053 | [2] -0.036 | dasatinib -0.017 | [3] -0.005 | [4] -0.018 | [5] -0.01 | tipifarnib -0.008 | mubritinib -0.033

TAL1 (UniProt P17542)
inactive: bafetinib -0.037 | [1] -0.062 | nilotinib -0.024 | [2] 0.023 | dasatinib -0.042 | [3] -0.053 | [4] 0.019 | [5] 0.01 | tipifarnib 0.018 | mubritinib -0.005

Continued:

TAOK1 (UniProt Q7L7X3)
inactive: bafetinib -0.056 | [1] 0.025 | nilotinib 0.007 | [2] -0.023 | dasatinib -0.014 | [3] -0.03 | [4] 0.043 | [5] -0.026 | tipifarnib 0.067 | mubritinib 0.078

TARSL2 (UniProt A2RTX5)
inactive: bafetinib -0.049 | [1] 0.048 | nilotinib -0.026 | [2] -0.046 | dasatinib -0.092 | [3] -0.025 | [4] 0.093 | [5] 0.087 | tipifarnib -0.062 | mubritinib 0.106

SZRD1 (UniProt Q7Z422)
inactive: bafetinib -0.063 | [1] -0.042 | nilotinib 0.004 | [2] 0.017 | dasatinib 0.051 | [3] -0.01 | [4] -0.091 | [5] -0.036 | tipifarnib -0.009 | mubritinib 0.038

STK4 (UniProt Q13043)
inactive: bafetinib -0.053 | [1] -0.027 | nilotinib -0.003 | [2] 0.143 | dasatinib -0.052 | [3] -0.016 | [4] 0.005 | [5] 0 | tipifarnib 0.039 | mubritinib -0.028

TAF15 (UniProt Q92804)
inactive: bafetinib -0.013 | [1] -0.077 | nilotinib -0.014 | [2] 0.041 | dasatinib 0.116 | [3] 0.057 | [4] -0.136 | [5] -0.121 | tipifarnib 0.04 | mubritinib -0.089

STXBP1 (UniProt P61764)
inactive: bafetinib 0.103 | [1] 0.075 | nilotinib -0.039 | [2] -0.186 | dasatinib -0.292 | [3] 0.056 | [4] 0.127 | [5] 0.012 | tipifarnib 0.06 | mubritinib 0.286

SUMO1 (UniProt P63165)
inactive: bafetinib -0.071 | [1] -0.023 | nilotinib -0.022 | [2] -0.078 | dasatinib 0.041 | [3] -0.04 | [4] -0.209 | [5] -0.068 | tipifarnib -0.35 | mubritinib 0.001
